Measurements taken from PubChem BioAssay AID1671190 (National Center for Advancing Translational Sciences (NCATS), 2021).
Screen size: about 580,000 compounds; about 6,100 (1.1%) were called active. Inconclusive means that the source gave no clear call. Such entries were picked first, then a sample of the others. Calls follow the shape of the dose curve; as a rule, active = well fitted inhibition curve with a large enough effect; inconclusive = small, poorly fitted or top-dose-only effect, or another doubt; inactive = no such curve, though single readings can be large or run the other way. A potency beside an inconclusive call is a rough fit, not a confirmed value.

By UniProt entry, the sequences of proteins in these tests, tags left out. Where a name states a change or a piece, a line headed by the entry shows the natural chain unless it says otherwise.
UniProt P18054: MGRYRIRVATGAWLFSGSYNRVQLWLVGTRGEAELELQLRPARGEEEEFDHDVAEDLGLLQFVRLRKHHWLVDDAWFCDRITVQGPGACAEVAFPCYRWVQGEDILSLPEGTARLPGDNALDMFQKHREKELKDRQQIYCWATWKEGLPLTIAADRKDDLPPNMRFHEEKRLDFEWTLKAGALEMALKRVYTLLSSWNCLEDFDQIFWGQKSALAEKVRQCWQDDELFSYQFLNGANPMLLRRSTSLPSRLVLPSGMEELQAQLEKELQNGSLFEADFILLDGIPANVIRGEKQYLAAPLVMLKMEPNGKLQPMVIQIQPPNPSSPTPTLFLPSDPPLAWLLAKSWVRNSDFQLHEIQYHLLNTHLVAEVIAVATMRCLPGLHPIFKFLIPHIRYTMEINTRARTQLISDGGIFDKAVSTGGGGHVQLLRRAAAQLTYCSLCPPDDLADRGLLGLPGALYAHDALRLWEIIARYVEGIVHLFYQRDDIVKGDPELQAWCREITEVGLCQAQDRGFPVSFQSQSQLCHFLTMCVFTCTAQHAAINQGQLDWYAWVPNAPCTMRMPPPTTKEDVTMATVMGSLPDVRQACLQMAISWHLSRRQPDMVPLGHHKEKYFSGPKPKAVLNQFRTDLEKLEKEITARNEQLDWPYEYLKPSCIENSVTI

target: Polyunsaturated fatty acid lipoxygenase ALOX12 (Homo sapiens) (UniProt P18054); assay: Primary qHTS assay for inhibitors of human arachidonate 12S-lipoxygenase (ALOX12): Round 2; settings: purified 12hLO, xylenol orange hydroperoxide absorbance; series mostly up to 108 µM
In short: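 Purified human 12hLO at 150 nM in 25 mM Hepes, 0.01% Triton X-100, pH 7.0, preincubated 15 min at room temperature with compound. Reaction started with 40 uM arachidonic acid, 30 min at room temperature. Hydroperoxide measured by Fe-xylenol orange, 573/405 nm absorbance ratio.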
Potency is read from the fitted curve at half-maximal effect.

| SMILES | Potency |
| --- | --- |
| CCCN(CC(=O)Nc1ccccc1C)C(=O)c1cc(C)oc1C | inactive |
| S=c1[nH]nc(COc2ccc(Cl)cc2Cl)n1-c1ccccc1 | inconclusive: 20 µM [inhibitor, partial curve, poor fit] |
| C[C@@](N)(C(=O)O)c1ccc(S(=O)(=O)O)cc1 | inconclusive: 1 µM [inhibitor, full curve, poor fit] |
| COc1cc(C(=O)NNC(=S)NC(=O)/C=C/c2ccccc2)cc(OC)c1OC | inconclusive: 17.8 µM [inhibitor, partial curve, poor fit] |
| CC(NC(=O)COC(=O)c1ccc(OCC2CCCO2)cc1)c1ccccc1Cl (centres undefined) | inconclusive: 44.7 µM [inhibitor, partial curve, poor fit] |
| COc1cccc(-c2nc(N3CCNCC3)c3ccccc3n2)c1 | inconclusive: 4.47 µM [inhibitor, full curve, poor fit] |
| CCN(CC)C(=O)N1CCCC(Cc2nncn2C(C)C)C1 (centres undefined) | inactive |
| Cc1ccc(NC(=O)Cn2c(=O)n(CCCCC(=O)NCc3ccccc3Cl)c(=O)c3ccccc32)cc1C | inconclusive: 89.1 µM [inhibitor, partial curve, poor fit] |
| COc1ccc(F)c(-c2nc(Cn3cnc4ccccc43)c(C)o2)c1 | inconclusive: 10 µM [inhibitor, full curve] |
| O=C(c1nc(-c2ccc(Cl)cc2Cl)c2cnccn12)N1CCN(c2ncccn2)CC1 | inconclusive: 79.4 µM [inhibitor, single point] |
| COc1ccc2[nH]cc(CCNC(=O)c3cccc(F)c3F)c2c1 | inconclusive: 3.16 µM [inhibitor, full curve, poor fit] |
| O=C1Nc2ccccc2C12CN(Cc1ccc3ccccc3c1)C2 | inconclusive: 112 µM [inhibitor, single point] |
| CC(NC(=O)c1ccc(CS(C)(=O)=O)cc1)c1ccc(F)cc1 (centres undefined) | inconclusive: 100 µM [inhibitor, single point] |
| COc1ccc(NC(=O)CSc2cn[nH]n2)cc1 | inconclusive: 7.08 µM [inhibitor, full curve, poor fit] |
| CC(C)N1CCCC(CNC(=O)CCc2nnc(CCCCc3ccccc3)o2)C1 (centres undefined) | inconclusive: 56.2 µM [inhibitor, partial curve, poor fit] |
| COc1cccc(C(=O)NC(=S)Nn2cnnc2)c1OC | inconclusive: 8.91 µM [inhibitor, full curve, poor fit] |
| CC1CC(C)(C)NC(=S)N1CCC(=O)N1CCc2ccccc2C1 (centres undefined) | active: 39.8 µM |
| O=C(O)c1ccccc1NS(=O)(=O)c1ccc(NN=Cc2ccccc2F)c([N+](=O)[O-])c1 | inconclusive: 39.8 µM [inhibitor, partial curve, poor fit] |
| Cc1cc(=O)oc2cc(NS(=O)(=O)c3ccccc3)ccc12 | inconclusive: 112 µM [inhibitor, single point] |
| CCCCOC(=O)c1ccc(NC(=O)CSc2nc3c(c(=O)[nH]2)CCCC3)cc1 | inconclusive: 100 µM [inhibitor, partial curve, poor fit] |
| Cc1cc2c(cc1C)N(C(=O)CN1C(=O)c3ccccc3C1=O)C(C)(C)c1ssc(=S)c1-2 | inconclusive: 56.2 µM [inhibitor, single point] |
| O=C(O)c1nccnc1C(=O)Nc1ccc(S(=O)(=O)N2CCOCC2)cc1 | inconclusive: 112 µM [inhibitor, single point] |

| SMILES | Potency |
| --- | --- |
| COc1ccccc1NC(=S)NCCc1c[nH]c2ccccc12 | inconclusive: 35.5 µM [inhibitor, partial curve, poor fit] |
| COc1ccc(C(=O)NNC(=S)NC(=O)/C=C/c2cccs2)cc1 | inconclusive: 2.51 µM [inhibitor, full curve, poor fit] |
| COc1ccc(-c2n[nH]c(C(F)(F)F)c2-c2cc3ccccc3o2)c(O)c1 | inconclusive: 79.4 µM [inhibitor, partial curve, poor fit] |
| CN(C(=O)c1cccc(NC(=O)Cc2ccc(NC(=O)C3CCN(C(=O)C4CCCCC4)CC3)cc2)c1)C1CCCC1 | inconclusive: 100 µM [inhibitor, single point] |
| Cc1ccccc1CN1C(=O)c2ccccc2Sc2ccc(C(=O)NC(C)c3ccccc3)cc21 (centres undefined) | inconclusive: 141 µM [inhibitor, partial curve, poor fit] |
| CCc1nnc(NS(=O)(=O)c2ccc(NC(=S)NC(=O)c3ccccc3)cc2)s1 | active: 7.94 µM |
| NS(=O)(=O)c1ccc(NC(=O)N2c3ccccc3Sc3ccccc32)cc1 | inconclusive: 35.5 µM [inhibitor, partial curve] |
| O=C(Cc1n[nH]c(=O)c2ccccc12)NC(c1ccccc1)C1CC1 (centres undefined) | inactive |
| COc1ccc(/C=C/c2nc(S(=O)(=O)c3ccccc3)c(N(C)C)o2)cc1 | inconclusive: 25.1 µM [inhibitor, partial curve, poor fit] |
| C[C@@H](NC(=O)c1coc(=O)c(Br)c1)c1ccccc1 | inactive |
| COc1ccc2cc(/C=C(\NC(=O)c3ccccc3)C(=O)NCCCO)c(Cl)nc2c1 | inconclusive: 44.7 µM [inhibitor, partial curve, poor fit] |
| Cc1cc(C)cc(NS(=O)(=O)c2ccc3[nH]cc(C(=O)N(C)Cc4ccccc4)c(=O)c3c2)c1 | inconclusive: 44.7 µM [inhibitor, partial curve, poor fit] |
| O=S1(=O)NC2(CCN(Cc3c[nH]c4ccccc34)C2)COc2ccncc21 (centres undefined) | inconclusive: 100 µM [inhibitor, partial curve, poor fit] |
| O=C(C[C@@H]1O[C@H](CNC(=O)c2ccccc2)[C@@H](O)[C@H]1O)NC1CC1 | inconclusive: 11.2 µM [inhibitor, full curve] |
| O=C(NCc1ccc(F)cc1)c1cc2c(=O)n3ccccc3nc2s1 | inconclusive: 50.1 µM [inhibitor, partial curve, poor fit] |
| C[C@H](CO)N1C[C@H](C)[C@@H](CN(C)S(C)(=O)=O)Oc2ccc(NC(=O)Nc3ccc(C(F)(F)F)cc3)cc2C1=O | inconclusive: 100 µM [inhibitor, single point] |
| S=C(NC1CCCCC1)N[C@H]1CO[C@H]2[C@@H]1OC[C@@H]2n1nnnc1Oc1ccc2c(c1)OCO2 | inconclusive: 79.4 µM [inhibitor, partial curve] |
| CCc1ccc2c(c1)C1(NN=C(c3ccc(C)cc3)S1)C(=O)N2 (centres undefined) | inconclusive: 39.8 µM [inhibitor, partial curve] |
| CCOc1ccc(NC(=O)c2ccccc2NS(=O)(=O)c2ccc(F)cc2)c([N+](=O)[O-])c1 | inconclusive: 15.8 µM [inhibitor, full curve, poor fit] |
| CCO/N=C/C1=C(O)C(C(=O)OC)C(C)(C)CC1=O (centres undefined) | inconclusive: 6.31 µM [inhibitor, full curve, poor fit] |
| O=C(O)[C@H]1CCC(=O)N1Cc1ccco1 | inconclusive: 35.5 µM [inhibitor, partial curve, poor fit] |
| CC(=O)NNS(=O)(=O)c1ccccc1[N+](=O)[O-] | inactive |

Three entries from above, reformatted.
SMILES	Potency
CC(NC(=O)c1ccc(CS(C)(=O)=O)cc1)c1ccc(F)cc1 (centres undefined)	inconclusive: 100 µM [inhibitor, single point]
COc1ccc(NC(=O)CSc2cn[nH]n2)cc1	inconclusive: 7.08 µM [inhibitor, full curve, poor fit]
CC(C)N1CCCC(CNC(=O)CCc2nnc(CCCCc3ccccc3)o2)C1 (centres undefined)	inconclusive: 56.2 µM [inhibitor, partial curve, poor fit]

Further structures follow:

| SMILES | Potency |
| --- | --- |
| CN1/C(=C\C(=O)COC(=O)c2ccc(O)cc2)C(C)(C)c2ccccc21 | inconclusive: 11.2 µM [inhibitor, partial curve, poor fit] |
| O=C1/C(=C/c2ccccc2F)CCc2ccccc21 | active: 3.16 µM |
| COc1ccc(-n2c(C)cc(/C=C3/SC(=S)N(C)C3=O)c2C)cc1 | inactive |
| OCc1cccc(-c2ccc3ncc(Nc4ccccc4F)n3n2)c1 | inconclusive: 39.8 µM [inhibitor, full curve, poor fit] |
| CCCCn1c(=O)[nH]c(=O)c2c1nc(COC(=O)/C=C/c1ccc(OCC#N)c(OC)c1)n2C | inconclusive: 2.51 µM [inhibitor, full curve, poor fit] |
| Cn1c(=O)c2cc(NC(=S)NC3CCCCC3)ccc2n1C/C=C/c1ccccc1 | active: 39.8 µM |
| COc1ccc(Nc2ncnc3ccc(OC)cc23)cc1 | inconclusive: 31.6 µM [inhibitor, single point] |
| CC(C)C(NC(=O)c1cccc(S(=O)(=O)N2CCOCC2)c1)C(=O)NCc1ccc(Cl)cc1 (centres undefined) | inactive |
| N#Cc1ncn(CCC(=O)Nc2c(Cl)cccc2Cl)n1 | inactive |
| Nc1[nH]c(C(=O)c2ccccc2)c(-c2ccc([N+](=O)[O-])cc2)c1C(=O)NCCc1c[nH]c2ccccc12 | inactive |
| COc1cc2c(cc1OC)CN(CC(=O)Nc1cccc([N+](=O)[O-])c1)CC2 | inconclusive: 5.01 µM [inhibitor, full curve, poor fit] |
| C[C@H](NS(=O)(=O)c1ccc(Cl)cc1)C(=O)OCC(=O)Nc1cc(S(=O)(=O)N2CCOCC2)ccc1Cl | inactive |
| COc1ccc(NC(=O)c2ccccc2SCc2ccc(C#N)cc2)cc1OC | active: 35.5 µM |
| CC(C)(C)C(=O)C1C(C(C)(C)C)=CC(c2ccccc2)=CC1(C)c1ccccc1 (centres undefined) | inactive |
| COc1ccc(CC(=O)N2CC(c3nnc(C(C)C)o3)C3(CCOCC3)C2)cc1Cl (centres undefined) | inactive |
| Cc1ccc(C23CC4CC(CC(CC(=O)NC(C)(C)CO)(C4)C2)C3)cc1 | inactive |
| O=C(NNc1nc2ccccc2s1)c1ccc(F)cc1 | inactive |
| NC(N)=N/N=C/c1ccc(Br)cc1 | inactive |
| CC1(C)SCCN(S(=O)(=O)c2ccc(OCC#CCO)cc2)[C@@H]1C(=O)NO | inconclusive: 6.11 µM [inhibitor, full curve] |
| CC(C)CC(=O)N1CCC(c2nc3ccccc3o2)CC1 | inactive |
